Experimental data published in PMC3349750.
No constants are given. Whether binding was seen depends on the method and setting. In cells and extracts the contact can be indirect. Some binding calls cover weakened binding; strength is not graded here.

Chains of the proteins cited; added tags and fusions are not shown.
UniProt Q59U10: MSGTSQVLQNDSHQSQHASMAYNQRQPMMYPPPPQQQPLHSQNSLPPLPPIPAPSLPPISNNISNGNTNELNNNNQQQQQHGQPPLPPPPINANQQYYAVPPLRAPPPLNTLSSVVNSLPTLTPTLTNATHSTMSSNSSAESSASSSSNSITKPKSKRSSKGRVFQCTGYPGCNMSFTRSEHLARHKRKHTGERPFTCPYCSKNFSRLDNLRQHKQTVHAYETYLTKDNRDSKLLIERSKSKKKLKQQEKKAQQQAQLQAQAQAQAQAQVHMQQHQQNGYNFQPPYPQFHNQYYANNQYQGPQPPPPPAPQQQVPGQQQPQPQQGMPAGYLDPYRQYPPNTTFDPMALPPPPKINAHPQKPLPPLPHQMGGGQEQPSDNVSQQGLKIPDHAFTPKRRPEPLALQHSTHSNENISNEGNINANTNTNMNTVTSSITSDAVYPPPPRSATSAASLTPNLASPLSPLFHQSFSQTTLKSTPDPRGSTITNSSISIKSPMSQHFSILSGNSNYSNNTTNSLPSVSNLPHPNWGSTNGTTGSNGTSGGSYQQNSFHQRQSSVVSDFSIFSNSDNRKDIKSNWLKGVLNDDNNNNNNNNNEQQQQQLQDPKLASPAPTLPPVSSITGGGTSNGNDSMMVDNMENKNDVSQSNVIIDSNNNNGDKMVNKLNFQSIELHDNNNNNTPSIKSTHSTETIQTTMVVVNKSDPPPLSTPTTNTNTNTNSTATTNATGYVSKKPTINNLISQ
UniProt Q5AP53: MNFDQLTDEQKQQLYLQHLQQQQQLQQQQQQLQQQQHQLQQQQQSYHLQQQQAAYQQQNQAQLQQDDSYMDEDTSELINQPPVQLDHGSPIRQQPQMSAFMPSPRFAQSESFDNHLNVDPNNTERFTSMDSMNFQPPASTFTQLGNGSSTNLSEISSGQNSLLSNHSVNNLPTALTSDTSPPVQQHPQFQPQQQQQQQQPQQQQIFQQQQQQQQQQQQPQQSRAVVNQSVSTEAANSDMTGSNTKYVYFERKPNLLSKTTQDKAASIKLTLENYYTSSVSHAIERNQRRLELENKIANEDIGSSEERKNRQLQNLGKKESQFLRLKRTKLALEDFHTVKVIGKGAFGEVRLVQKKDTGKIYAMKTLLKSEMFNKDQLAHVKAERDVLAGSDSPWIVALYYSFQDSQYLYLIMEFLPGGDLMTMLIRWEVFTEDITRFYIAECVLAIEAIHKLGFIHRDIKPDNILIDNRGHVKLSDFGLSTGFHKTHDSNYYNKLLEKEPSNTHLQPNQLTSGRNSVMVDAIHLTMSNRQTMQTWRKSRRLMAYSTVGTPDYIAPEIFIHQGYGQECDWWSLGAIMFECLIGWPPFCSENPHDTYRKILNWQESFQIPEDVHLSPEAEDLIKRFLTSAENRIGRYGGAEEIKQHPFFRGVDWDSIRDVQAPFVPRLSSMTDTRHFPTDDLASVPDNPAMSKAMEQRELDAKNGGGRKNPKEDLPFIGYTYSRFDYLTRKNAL

Target: Transcription factor Bcr1, HA-tagged (Bcr1-HA) (C. albicans) (UniProt Q59U10)
Experiment: co-IP; protein extracts of the C. albicans CBK1-myc BCR1-HA strain (JC1151) immunoprecipitated with anti-HA antibodies; SDS-PAGE, probed with anti-myc or anti-HA; the CBK1-myc strain (JC305) was the negative control; the protocol is as in ref. 17

NDR/LATS kinase Cbk1, myc-tagged (Cbk1-myc) (from UniProt Q5AP53 1-732) (enzyme)
binding: binds
